Drawing on paper PMC7294942, this text covers binding for one substance.

By UniProt entry, the sequences of proteins in these tests, tags left out.
UniProt P01106: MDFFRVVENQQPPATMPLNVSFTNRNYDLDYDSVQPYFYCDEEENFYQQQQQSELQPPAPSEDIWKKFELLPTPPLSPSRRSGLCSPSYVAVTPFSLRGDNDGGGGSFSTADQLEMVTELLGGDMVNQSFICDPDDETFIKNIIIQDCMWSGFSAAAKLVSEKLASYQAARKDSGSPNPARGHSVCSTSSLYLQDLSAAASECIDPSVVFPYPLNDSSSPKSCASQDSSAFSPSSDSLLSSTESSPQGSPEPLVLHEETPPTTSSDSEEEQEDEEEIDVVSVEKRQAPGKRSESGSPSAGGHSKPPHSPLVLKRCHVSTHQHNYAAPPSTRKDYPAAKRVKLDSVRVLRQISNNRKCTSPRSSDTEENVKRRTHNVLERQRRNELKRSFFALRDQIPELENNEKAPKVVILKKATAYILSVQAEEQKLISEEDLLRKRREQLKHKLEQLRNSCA
UniProt Q92831: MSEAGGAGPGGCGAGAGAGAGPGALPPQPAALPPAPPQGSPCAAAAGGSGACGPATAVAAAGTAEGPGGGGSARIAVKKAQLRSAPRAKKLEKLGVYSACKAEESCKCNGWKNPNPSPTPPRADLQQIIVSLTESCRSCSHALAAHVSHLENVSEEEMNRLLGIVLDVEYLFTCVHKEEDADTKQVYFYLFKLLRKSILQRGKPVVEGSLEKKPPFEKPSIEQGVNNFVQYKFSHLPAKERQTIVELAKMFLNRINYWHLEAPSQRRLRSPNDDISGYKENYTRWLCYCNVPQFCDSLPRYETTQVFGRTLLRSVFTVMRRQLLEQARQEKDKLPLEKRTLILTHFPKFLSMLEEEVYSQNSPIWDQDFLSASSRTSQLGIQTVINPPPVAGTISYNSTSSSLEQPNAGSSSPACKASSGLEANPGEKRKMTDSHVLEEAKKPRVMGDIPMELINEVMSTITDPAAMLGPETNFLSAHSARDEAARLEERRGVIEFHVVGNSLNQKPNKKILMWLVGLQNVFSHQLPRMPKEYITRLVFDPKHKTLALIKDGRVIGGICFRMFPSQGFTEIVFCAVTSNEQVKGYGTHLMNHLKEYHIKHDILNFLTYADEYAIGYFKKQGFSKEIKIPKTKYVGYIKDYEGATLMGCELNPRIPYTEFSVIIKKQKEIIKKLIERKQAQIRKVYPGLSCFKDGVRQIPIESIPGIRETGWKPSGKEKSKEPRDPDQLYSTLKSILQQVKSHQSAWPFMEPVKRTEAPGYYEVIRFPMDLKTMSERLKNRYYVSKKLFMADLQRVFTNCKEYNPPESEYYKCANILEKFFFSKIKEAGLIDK

This assay concerns the target Flag-c-MYC (UniProt P01106). The assay can be described thus: affinity purification with mass spectrometry; MIA PaCa-2 cells transfected with pCDNA3-2×Flag (empty vector) or pCDNA3-2×Flag-c-MYC; immunoprecipitation with anti-Flag resin; purified complex analysed by mass spectrometry.

These are yes or no findings as the source states them, for the method shown. In cells and extracts the contact can be indirect. Here binding means that the protein was enriched with, or labelled near, the bait; the list need not be complete.

On to “PCAF (p300/CBP-associated Factor) (from UniProt Q92831 1-832)”, for which the binding result is “binds”.
